2 molecules from patent US20230279141A1 (MINERVA BIOTECHNOLOGIES, published 2023) can be followed below.

Chains of the proteins cited; added tags and fusions are not shown. Residues count along the entry.
UniProt Q9Y5B8, residues 92-376: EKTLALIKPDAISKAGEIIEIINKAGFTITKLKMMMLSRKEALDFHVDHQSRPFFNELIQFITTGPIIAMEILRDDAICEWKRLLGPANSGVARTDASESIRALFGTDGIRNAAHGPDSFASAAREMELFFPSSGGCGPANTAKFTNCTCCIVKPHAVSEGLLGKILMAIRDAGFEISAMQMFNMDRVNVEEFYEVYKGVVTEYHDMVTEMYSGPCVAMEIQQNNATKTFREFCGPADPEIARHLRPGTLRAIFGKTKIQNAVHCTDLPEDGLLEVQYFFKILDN

Test [1] concerns the target NME7AB-like protein (~33 kDa NME7 species) (human) (UniProt Q9Y5B8). In words: immunofluorescence on cancer cell lines, in parallel to FIG. 47.
The target is the same in test [2]. In words: immunofluorescence on T47D, ZR-75-1, H1975, H292, HPAFII and DU145 cells (FIG. 47).

No constants are given. Whether binding was seen depends on the method and setting. Some entries that bind do so weakly or less than the wild type.

B1: anti-NME7AB monoclonal antibody 8F9A5A1 (antibody, V domains shown)
VH: IQLVQSGPELKKPGETVKISCKASGYTFTNYGMNWVKQAPGKGLKWMGWINTYTGEPTYVDDFKGRFAFSLETSATTAYLQINNLKNEDTSTYFCARLRGIRPGPLAYWGQGTLVTVSA
VL: EILLTQSPAIIAASPGEKVTITCSASSSVSYMNWYQQKPGSSPKIWIYGISNLASGVPARFSGSGSGTSFSFTINSMEAEDVATYYCQQRSSYPPTFGGGTKLEIKR
notes: Mouse monoclonal
On to B1, for which the binding entry in test [1] is given as “binds”.

B2: anti-NME7AB monoclonal antibody 5F3A5D4 (antibody, V domains shown)
VH: VQLQQSGPDLVKPGTSVKISCKTSGNTFTEYTMHWVKQSHGKSLEWIGGFNPNNGVTNYNQKFKGKATLTVDKSSSTAYMELRSLTSEDSAVYYCARRYYHSTYVFYFDSWGQGTTLTVSS
VL: DIQMTQTTSSLSASLGDRVTISCSASQGISNYLNWFQQKPDGTIKLLIYYTSSLHSGVPSRFSGSGSGTDYSLTISNVEPEDIATYYCQQYSKLPYTFGGGTKLEIKR
notes: Mouse monoclonal
As to B2, the binding entry in test [2] is “binds”.
